Assay results published in patent publication US20260174677A1, “METHODS OF TREATING INSULIN RESISTANCE AND ASSOCIATED DISORDERS” (The University of Melboune, priority 2022, published 2026).
These are yes or no findings as the source states them, for the method shown. Some results given as binding are weak or reduced against the parent protein; the word gives no strength.

Protein sequences, listed by entry. Tags and fused reporters are not part of them. Lines headed by an entry give the natural chain unless they say otherwise; changes in a name come on top. Residues count along the entry.
UniProt P13608, residues 17-2364: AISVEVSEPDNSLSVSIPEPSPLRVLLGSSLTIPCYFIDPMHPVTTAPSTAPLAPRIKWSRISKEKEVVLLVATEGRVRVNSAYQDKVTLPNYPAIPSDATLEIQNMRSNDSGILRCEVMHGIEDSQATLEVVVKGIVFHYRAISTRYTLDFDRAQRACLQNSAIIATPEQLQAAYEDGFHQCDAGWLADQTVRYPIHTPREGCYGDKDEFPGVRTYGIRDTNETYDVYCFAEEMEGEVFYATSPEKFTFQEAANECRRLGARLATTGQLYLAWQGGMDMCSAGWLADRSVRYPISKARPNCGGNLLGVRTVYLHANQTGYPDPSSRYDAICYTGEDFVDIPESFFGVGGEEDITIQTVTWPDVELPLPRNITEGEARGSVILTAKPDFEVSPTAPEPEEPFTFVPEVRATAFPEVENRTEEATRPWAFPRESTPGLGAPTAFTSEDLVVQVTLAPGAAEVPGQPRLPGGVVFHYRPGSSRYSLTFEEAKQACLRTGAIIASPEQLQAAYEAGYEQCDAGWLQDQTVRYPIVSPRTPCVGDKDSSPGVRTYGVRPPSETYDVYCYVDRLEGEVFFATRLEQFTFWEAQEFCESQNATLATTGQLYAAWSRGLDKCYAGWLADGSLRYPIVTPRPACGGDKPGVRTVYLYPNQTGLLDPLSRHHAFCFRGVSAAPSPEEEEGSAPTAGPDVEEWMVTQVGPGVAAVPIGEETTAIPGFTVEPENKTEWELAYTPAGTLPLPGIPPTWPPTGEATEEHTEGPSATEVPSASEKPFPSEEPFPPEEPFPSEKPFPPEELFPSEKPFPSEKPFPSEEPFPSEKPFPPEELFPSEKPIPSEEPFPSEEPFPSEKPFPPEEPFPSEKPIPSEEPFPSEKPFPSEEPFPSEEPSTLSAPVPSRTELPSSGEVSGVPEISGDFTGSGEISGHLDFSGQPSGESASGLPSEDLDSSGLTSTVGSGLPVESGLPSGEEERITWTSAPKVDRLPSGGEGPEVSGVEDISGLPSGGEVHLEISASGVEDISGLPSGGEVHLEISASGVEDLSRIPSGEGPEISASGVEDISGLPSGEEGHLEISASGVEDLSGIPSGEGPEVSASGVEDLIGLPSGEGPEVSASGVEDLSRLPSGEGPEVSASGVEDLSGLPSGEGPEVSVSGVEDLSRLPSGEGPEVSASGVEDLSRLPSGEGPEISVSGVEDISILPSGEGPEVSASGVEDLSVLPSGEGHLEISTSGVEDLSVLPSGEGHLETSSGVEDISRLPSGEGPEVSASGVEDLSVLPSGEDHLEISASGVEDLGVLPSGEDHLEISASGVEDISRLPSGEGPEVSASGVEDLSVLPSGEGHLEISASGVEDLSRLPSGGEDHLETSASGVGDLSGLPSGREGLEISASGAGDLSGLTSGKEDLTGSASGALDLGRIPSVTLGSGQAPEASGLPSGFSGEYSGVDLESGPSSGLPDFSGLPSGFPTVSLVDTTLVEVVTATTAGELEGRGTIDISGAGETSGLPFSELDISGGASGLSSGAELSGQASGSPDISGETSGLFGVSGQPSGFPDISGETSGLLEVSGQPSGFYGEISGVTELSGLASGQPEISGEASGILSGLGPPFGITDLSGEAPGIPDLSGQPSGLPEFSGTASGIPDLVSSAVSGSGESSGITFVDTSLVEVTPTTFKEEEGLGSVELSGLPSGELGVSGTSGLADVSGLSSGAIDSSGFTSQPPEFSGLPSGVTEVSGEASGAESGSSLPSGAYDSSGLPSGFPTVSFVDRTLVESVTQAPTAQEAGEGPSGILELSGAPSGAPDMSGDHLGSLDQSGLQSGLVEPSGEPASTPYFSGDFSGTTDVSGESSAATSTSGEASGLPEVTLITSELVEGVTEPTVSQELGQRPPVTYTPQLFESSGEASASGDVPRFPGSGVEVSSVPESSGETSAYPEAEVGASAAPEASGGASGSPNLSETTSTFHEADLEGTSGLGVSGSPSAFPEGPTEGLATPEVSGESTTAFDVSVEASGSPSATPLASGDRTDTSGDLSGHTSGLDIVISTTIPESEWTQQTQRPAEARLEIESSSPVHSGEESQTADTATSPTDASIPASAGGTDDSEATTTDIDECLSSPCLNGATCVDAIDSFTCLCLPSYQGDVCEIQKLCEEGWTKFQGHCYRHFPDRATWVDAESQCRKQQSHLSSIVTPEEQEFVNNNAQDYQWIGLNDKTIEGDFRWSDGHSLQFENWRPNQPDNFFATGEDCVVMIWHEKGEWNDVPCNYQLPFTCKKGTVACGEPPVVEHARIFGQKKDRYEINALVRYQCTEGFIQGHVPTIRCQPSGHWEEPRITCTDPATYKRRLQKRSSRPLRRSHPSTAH
UniProt P01308: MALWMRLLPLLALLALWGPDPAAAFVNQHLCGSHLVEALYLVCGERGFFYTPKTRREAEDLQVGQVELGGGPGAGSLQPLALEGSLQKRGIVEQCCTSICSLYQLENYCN

Biological target: purified aggrecan (A1960, Merck Millipore) (UniProt P13608)
Test: in vitro plate binding assay; aggrecan coated at 10 ug/ml, insulin-FITC 5 ng/ml-1 mg/ml for 2 h, read at 495 nm

binding: binds
Substance: fluorescein isothiocyanate tagged insulin (insulin-FITC) (from UniProt P01308 25-54; P01308 90-110) (peptide)
